In the supplement of paper PMC10077471:
Whole data set: some 1,900 compounds, median “excess over highest single agent (ExcessHSA) synergy score, 6x6 matrix” near -83, cut for the lowest 2% near -370. The list shows a part of the results.

test system: NCI-H446; test: excess over highest single agent (ExcessHSA) synergy score, 6x6 matrix; higher = less synergy (more negative = stronger synergy); conditions: 72 h; CellTiter-Glo viability

Compound | excess over highest single agent
C[C@H]1C[C@@H]2[C@H]([C@@H](O)C[C@@]3(C)[C@H]2CC[C@]3(O)C(=O)CO)[C@@]2(C)C=CC(=O)C=C12 + Cc1sc2c(c1C)C(c1ccc(Cl)cc1)=N[C@@H](CC(=O)OC(C)(C)C)c1nnc(C)n1-2 [NCGC00250412-19] | 86.8
CCCNCC(O)COc1ccccc1C(=O)CCc1ccccc1 (centres undefined) + Cc1sc2c(c1C)C(c1ccc(Cl)cc1)=N[C@@H](CC(=O)OC(C)(C)C)c1nnc(C)n1-2 [NCGC00250412-19] | -355
COc1cc([C@@H]2c3cc4c(cc3[C@@H](O[C@@H]3O[C@@H]5CO[C@@H](C)O[C@H]5[C@H](O)[C@H]3O)[C@H]3COC(=O)[C@H]23)OCO4)cc(OC)c1O + Cc1sc2c(c1C)C(c1ccc(Cl)cc1)=N[C@@H](CC(=O)OC(C)(C)C)c1nnc(C)n1-2 [NCGC00250412-19] | 51.1
COc1ccccc1OCC(O)CN1CCN(CC(=O)Nc2c(C)cccc2C)CC1 (centres undefined) + Cc1sc2c(c1C)C(c1ccc(Cl)cc1)=N[C@@H](CC(=O)OC(C)(C)C)c1nnc(C)n1-2 [NCGC00250412-19] | -107
COc1nccc(-c2c(-c3ccc(F)cc3)ncn2C2CCNCC2)n1 + Cc1sc2c(c1C)C(c1ccc(Cl)cc1)=N[C@@H](CC(=O)OC(C)(C)C)c1nnc(C)n1-2 [NCGC00250412-19] | -55.9
CN(C)c1nc(N(C)C)nc(N(C)C)n1 + Cc1sc2c(c1C)C(c1ccc(Cl)cc1)=N[C@@H](CC(=O)OC(C)(C)C)c1nnc(C)n1-2 [NCGC00250412-19] | -40.3
COc1cc(N2CCC(C(N)=O)CC2)ccc1Nc1nc(N)c(Cl)c(Nc2ccccc2S(=O)(=O)C(C)C)n1 + Cc1sc2c(c1C)C(c1ccc(Cl)cc1)=N[C@@H](CC(=O)OC(C)(C)C)c1nnc(C)n1-2 [NCGC00250412-19] | 223
COc1cc2c(cc1-c1c(C)noc1C)ncc1[nH]c(=O)n([C@H](C)c3ccccn3)c12 + Cc1sc2c(c1C)C(c1ccc(Cl)cc1)=N[C@@H](CC(=O)OC(C)(C)C)c1nnc(C)n1-2 [NCGC00250412-19] | -129
COc1cc2c(Oc3ccc4[nH]c(C)cc4c3F)ncnc2cc1OCCCN1CCCC1 + Cc1sc2c(c1C)C(c1ccc(Cl)cc1)=N[C@@H](CC(=O)OC(C)(C)C)c1nnc(C)n1-2 [NCGC00250412-19] | -196
O=S(=O)(O)c1ccc2cc(N=Nc3cc(S(=O)(=O)O)c4cccnc4c3O)ccc2c1 + Cc1sc2c(c1C)C(c1ccc(Cl)cc1)=N[C@@H](CC(=O)OC(C)(C)C)c1nnc(C)n1-2 [NCGC00250412-19] | -115
CC(=O)O[C@]1(C(C)=O)CC[C@H]2[C@@H]3C[C@H](C)C4=CC(=O)CC[C@]4(C)[C@H]3CC[C@@]21C + Cc1sc2c(c1C)C(c1ccc(Cl)cc1)=N[C@@H](CC(=O)OC(C)(C)C)c1nnc(C)n1-2 [NCGC00250412-19] | -40.2
CC(C)(C)c1nc2c3cc[nH]c(=O)c3c3cc(F)ccc3c2[nH]1 + Cc1sc2c(c1C)C(c1ccc(Cl)cc1)=N[C@@H](CC(=O)OC(C)(C)C)c1nnc(C)n1-2 [NCGC00250412-19] | 20.3
O=C1C[C@@H](c2ccc(O)cc2)Oc2cc(O)cc(O)c21 + Cc1sc2c(c1C)C(c1ccc(Cl)cc1)=N[C@@H](CC(=O)OC(C)(C)C)c1nnc(C)n1-2 [NCGC00250412-19] | -84
CCC(=O)O[C@]1(C(=O)CCl)[C@@H](C)C[C@H]2[C@@H]3CCC4=CC(=O)C=C[C@]4(C)[C@@]3(F)[C@@H](O)C[C@@]21C + Cc1sc2c(c1C)C(c1ccc(Cl)cc1)=N[C@@H](CC(=O)OC(C)(C)C)c1nnc(C)n1-2 [NCGC00250412-19] | 1160
O=C1NC(=O)/C(=C/c2ccc3nccnc3c2)S1 + Cc1sc2c(c1C)C(c1ccc(Cl)cc1)=N[C@@H](CC(=O)OC(C)(C)C)c1nnc(C)n1-2 [NCGC00250412-19] | 69.4
CCOC(=O)[C@H](CCc1ccccc1)N[C@H]1CS[C@H](c2cccs2)CN(CC(=O)O)C1=O + Cc1sc2c(c1C)C(c1ccc(Cl)cc1)=N[C@@H](CC(=O)OC(C)(C)C)c1nnc(C)n1-2 [NCGC00250412-19] | -51.1
NC(=O)c1c(OCc2c(F)cc(Br)cc2F)nsc1NC(=O)NCCCCN1CCCC1 + Cc1sc2c(c1C)C(c1ccc(Cl)cc1)=N[C@@H](CC(=O)OC(C)(C)C)c1nnc(C)n1-2 [NCGC00250412-19] | -187
CCCCC(F)(F)[C@@]1(O)CC[C@H]2[C@@H](CC(=O)[C@@H]2CCCCCCC(=O)O)O1 + Cc1sc2c(c1C)C(c1ccc(Cl)cc1)=N[C@@H](CC(=O)OC(C)(C)C)c1nnc(C)n1-2 [NCGC00250412-19] | -107
COc1ccc(F)c(F)c1C(=O)c1cnc(NC2CCN(S(C)(=O)=O)CC2)nc1N + Cc1sc2c(c1C)C(c1ccc(Cl)cc1)=N[C@@H](CC(=O)OC(C)(C)C)c1nnc(C)n1-2 [NCGC00250412-19] | -133
O=c1c(-c2ccc(O)cc2)coc2cc(O[C@@H]3O[C@H](CO)[C@@H](O)[C@H](O)[C@H]3O)ccc12 + Cc1sc2c(c1C)C(c1ccc(Cl)cc1)=N[C@@H](CC(=O)OC(C)(C)C)c1nnc(C)n1-2 [NCGC00250412-19] | -180
O=c1c(O)c(-c2ccc(O)cc2O)oc2cc(O)cc(O)c12 + Cc1sc2c(c1C)C(c1ccc(Cl)cc1)=N[C@@H](CC(=O)OC(C)(C)C)c1nnc(C)n1-2 [NCGC00250412-19] | -13.8
OC[C@H]1O[C@@H](Oc2cc(O)cc(/C=C/c3ccc(O)cc3)c2)[C@H](O)[C@@H](O)[C@@H]1O + Cc1sc2c(c1C)C(c1ccc(Cl)cc1)=N[C@@H](CC(=O)OC(C)(C)C)c1nnc(C)n1-2 [NCGC00250412-19] | -272
CC(=O)Nc1nc(C)c(-c2ccc(Cl)c(S(=O)(=O)NCCO)c2)s1 + Cc1sc2c(c1C)C(c1ccc(Cl)cc1)=N[C@@H](CC(=O)OC(C)(C)C)c1nnc(C)n1-2 [NCGC00250412-19] | 29.4
N#Cc1cc(NC(=O)Nc2nnc(-c3ccncc3)s2)ccc1-c1cn[nH]c1 + Cc1sc2c(c1C)C(c1ccc(Cl)cc1)=N[C@@H](CC(=O)OC(C)(C)C)c1nnc(C)n1-2 [NCGC00250412-19] | 313

A few values from the results shown:
excess over highest single agent, C[C@H]1C[C@@H]2[C@H]([C@@H](O)C[C@@]3(C)[C@H]2CC[C@]3(O)C(=O)CO)[C@@]2(C)C=CC(=O)C=C12 + Cc1sc2c(c1C)C(c1ccc(Cl)cc1)=N[C@@H](CC(=O)OC(C)(C)C)c1nnc(C)n1-2 [NCGC00250412-19] is entered as 86.8
excess over highest single agent, COc1nccc(-c2c(-c3ccc(F)cc3)ncn2C2CCNCC2)n1 + Cc1sc2c(c1C)C(c1ccc(Cl)cc1)=N[C@@H](CC(=O)OC(C)(C)C)c1nnc(C)n1-2 [NCGC00250412-19] is entered as -55.9
